By UniProt entry, the sequences of proteins in these tests, tags left out. Residues count along the entry.
UniProt P05556, 21-798 limits assumed: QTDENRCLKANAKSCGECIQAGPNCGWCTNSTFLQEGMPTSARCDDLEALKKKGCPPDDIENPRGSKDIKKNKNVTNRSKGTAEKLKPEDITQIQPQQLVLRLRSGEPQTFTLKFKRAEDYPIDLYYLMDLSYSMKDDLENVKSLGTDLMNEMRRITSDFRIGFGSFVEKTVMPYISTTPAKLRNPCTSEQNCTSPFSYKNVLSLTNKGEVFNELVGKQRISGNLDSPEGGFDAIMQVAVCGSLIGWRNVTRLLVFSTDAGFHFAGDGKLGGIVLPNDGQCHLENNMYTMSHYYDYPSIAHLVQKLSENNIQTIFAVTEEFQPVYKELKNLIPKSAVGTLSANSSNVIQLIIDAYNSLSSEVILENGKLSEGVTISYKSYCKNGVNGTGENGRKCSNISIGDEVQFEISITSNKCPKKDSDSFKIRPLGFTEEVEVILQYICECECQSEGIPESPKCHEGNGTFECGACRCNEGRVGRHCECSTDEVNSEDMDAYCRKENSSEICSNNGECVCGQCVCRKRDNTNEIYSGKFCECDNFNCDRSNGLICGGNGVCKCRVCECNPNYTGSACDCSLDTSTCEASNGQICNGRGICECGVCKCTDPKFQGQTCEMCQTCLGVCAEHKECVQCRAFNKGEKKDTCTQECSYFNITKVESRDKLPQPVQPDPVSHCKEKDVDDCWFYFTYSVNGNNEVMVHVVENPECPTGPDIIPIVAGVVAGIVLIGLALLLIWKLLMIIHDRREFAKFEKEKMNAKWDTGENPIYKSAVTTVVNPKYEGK
UniProt P13612, 34-1032 limits assumed: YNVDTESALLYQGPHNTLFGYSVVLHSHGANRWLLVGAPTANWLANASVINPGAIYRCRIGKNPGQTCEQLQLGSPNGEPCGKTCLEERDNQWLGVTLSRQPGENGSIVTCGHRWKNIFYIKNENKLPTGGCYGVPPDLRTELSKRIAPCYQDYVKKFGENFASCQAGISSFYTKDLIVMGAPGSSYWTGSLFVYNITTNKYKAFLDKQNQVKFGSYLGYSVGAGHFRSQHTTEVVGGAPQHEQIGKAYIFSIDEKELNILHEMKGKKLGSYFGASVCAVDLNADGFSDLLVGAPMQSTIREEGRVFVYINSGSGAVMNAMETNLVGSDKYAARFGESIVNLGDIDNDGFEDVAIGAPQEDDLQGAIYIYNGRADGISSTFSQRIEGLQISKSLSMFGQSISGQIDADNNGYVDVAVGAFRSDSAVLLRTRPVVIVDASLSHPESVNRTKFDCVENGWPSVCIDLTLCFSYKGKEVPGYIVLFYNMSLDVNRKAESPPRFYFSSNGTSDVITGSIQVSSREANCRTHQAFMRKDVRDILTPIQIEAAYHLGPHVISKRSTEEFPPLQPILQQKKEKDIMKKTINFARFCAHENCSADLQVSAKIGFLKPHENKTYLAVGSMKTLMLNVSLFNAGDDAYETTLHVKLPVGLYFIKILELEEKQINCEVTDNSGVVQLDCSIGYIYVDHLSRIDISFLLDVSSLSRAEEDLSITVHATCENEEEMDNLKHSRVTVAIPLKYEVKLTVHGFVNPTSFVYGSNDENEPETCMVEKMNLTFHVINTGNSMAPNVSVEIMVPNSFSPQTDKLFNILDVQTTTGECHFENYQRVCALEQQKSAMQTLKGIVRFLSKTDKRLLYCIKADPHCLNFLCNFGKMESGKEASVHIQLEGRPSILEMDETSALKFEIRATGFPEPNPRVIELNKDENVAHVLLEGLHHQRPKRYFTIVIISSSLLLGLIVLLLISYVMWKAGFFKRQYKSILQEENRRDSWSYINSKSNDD

According to patent US6482849B1, “Inhibitors of α4β1 mediated cell adhesion” (Tanabe Seiyaku Co., Ltd., priority 1997, dated 2002):

Columns and labels:
[1] = target: α4β1 integrin (Jurkat cell adhesion to immobilized CS-1 derived peptide CLHPGEILDVPST) (Homo sapiens, UniProt P05556+P13612); experiment: Jurkat-CS-1 Assay; details: read-out: IC50 Jurkat CS-1; Jurkat cells on CS-1 peptide coated plates
Experimental: The CS-1 derived peptide, CLHPGEILDVPST, and the scrambled control peptide, CLHGPIELVSDPT, were synthesized on a Beckman 990 synthesizer using t-Boc methodology. The peptides were immobilized onto microtiter plates using the heterobifunctional crosslinker 3-(2-pyridyldithio)propionic acid N-hydroxysuccinimide ester (SPDP) as reported by Pierschbacher et al., Proc. Natl. Acad. USA, 80:1224-1227 (1983). Microtiter plates were coated with 20 μg/ml HSA for 2 hr. at room temperature, washed once with PBS and derivatized with 10 μg/ml SPDP for 1 hr. After washing, 100 μl of a 100 μg/ml cysteine containing peptide solution which had been recently dissolved was added to the wells and allowed to crosslink to the plates overnight at 4° C. Unbound peptide was removed from plates by washing with PBS. To block non-reacted sites, the plates are coated with 100 μl of a 2.5 mg/ml BSA solution in PBS for 1 hr. at 37° C. […]
Following this incubation the plates were washed once with PBS and the attached cells were fixed with 3% paraformaldehyde in PBS and stained with 0.5% toluidine blue in 3.7% formaldehyde. The cells were stained overnight at room temperature and the optical density at 590 nm of toluidine blue stained cells was determined using a vertical pathway spectrophotometer to quantitate attachment (VMAX Kinetic Microplate Reader, Molecular Devices, Menlo Park, Calif.). […]

[2] = target: α4β1 integrin (Jurkat T-cell adhesion to IL-1 stimulated endothelial cell monolayers) (Homo sapiens, UniProt P05556+P13612); experiment: Jurkat-Endothelial Cell Adhesion Assay (Jurkat EC); details: read-out: IC50 Jurkat EC; Jurkat cells on IL-1 stimulated HUVEC monolayers
Experimental: The following assay established the activity of the present compounds in inhibiting β1-mediated cell adhesion in a representative in vitro system. This assay measures the adhesive interactions of a T-cell line, Jurkat, known to express the α4β1 integrin, to endothelial monolayers in the presence of test compounds. The test compounds were added in increasing concentrations to T-cells and then the T-cell compound mixture was added to IL-1 stimulated endothelial cell monolayers. The plates were incubated, washed and the percentage of attached cells was quantitated. […] Human umbilical vein endothelial cells were purchased from Clonetics (San Diego, Calif.) at passage number 2. […]
Confluent endothelial monolayers, grown in 96-well tissue culture plates, were stimulated for 4 hr. at 37° C. with 0.1 ng/ml (˜50 U/ml) recombinant IL-1 (Amgen, Thousand Oaks, Calif.). […] Following this incubation, the monolayers were washed twice with PBS containing 1 mM calcium chloride and 1 mM magnesium chloride and the plates were read using a Millipore Cytofluor 2300 (Marlboro, Mass.). Fluorescence in each well was measured as Arbitrary Fluorescence Units and percent adhesion in the absence of compound was adjusted to 100% and the % adhesion in the presence of compound was calculated. Monolayers were also fixed in 3% paraformaldehyde and evaluated microscopically to verify the adhesion. […]

Structure (SMILES) | IC50 [1] [nM] | IC50 [2] [nM]
CC1(C)[C@@H](C(=O)N[C@@H](Cc2ccc(NS(=O)(=O)c3c(Cl)cccc3Cl)cc2)C(=O)O)CC[C@@]1(C)C(=O)O | 80 to 500 | < 800
CC1(C)[C@@H](C(=O)N[C@@H](Cc2ccc(OCc3ccc(Cl)c(Cl)c3)cc2)C(=O)O)CC[C@@]1(C)C(=O)O | – | 5000 to 10000

Structures were worked out from names or drawings and are uncertain.
